Assay: general procedure: peptide synthesis; DCC/HOBT; TOTU/DIEA; diisopropylcarbodiimide/HOBT; alkyl isocyanates
Settings: late stage modification step, 215 nm area %, cyclic
For “CH3(CH2)8CO-D-Kyn-Asn-Asp-cdpeptide [Example 10]”, the “final HPLC purity” value was 100%.
In the case of CH3(CH2)8CO-D-Phe-Asn-Asp-cdpeptide [6], the “final HPLC purity” value is reported as 100%.
With CH3(CH2)8CO-L-Phe-Asn-Asp-cdpeptide [5] the “final HPLC purity” value was 100%.

Same assay, conditions: late stage modification step, 215 nm area %, cyclic, sequence written open
In the case of CH3(CH2)8CO-L-1-Naph-Asn-Asp-cdpeptide, the “final HPLC purity” value is reported as 70%.
For CH3(CH2)8CO-L-2-Naph-Asn-Asp-cdpeptide, the “final HPLC purity” value was “about 86%”.
In the case of CH3(CH2)8CO-L-Bthio-Asn-Asp-cdpeptide, the “final HPLC purity” value is reported as 67%.
In the case of CH3(CH2)11NHCO-Asn-Asp-cdpeptide, the “final HPLC purity” value is reported as 86%.
For “CH3(CH2)11NHCO-L-2-Naph-Asn-Asp-cdpeptide”, the “final HPLC purity” value was 88%.
In the case of CH3(CH2)15NHCO-Asn-Asp-cdpeptide, the “final HPLC purity” value is reported as 93%.

Same assay, conditions: lipidation step, 215 nm area %
With “CH3(CH2)9SO2-L-Phe-Asn-Asp-FMOC-cdpeptide” the “final HPLC purity” value was 100%.
In the case of CH3(CH2)11NHCO-Asn-Asp-FMOC-cdpeptide, the “final HPLC purity” value is reported as 90%.

Same assay, conditions: purification step, 215 nm area %, cyclic
With “CH3(CH2)8CO-D-Kyn-Asn-Asp-cdpeptide [10]” the “final HPLC purity” value was 95%.
With CH3(CH2)8CO-L-Kyn-Asn-Asp-cdpeptide [9] the “final HPLC purity” value was 96%.
